Source: PubChem BioAssay AID1259308 (NCATS, 2017)

- Aim: 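Knock-downs that increase output of a recombinant reporter protein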 (primary screen)
- Cells: human HEK293 embryonic kidney cells stably expressing firefly luciferase (HEK-CMV-Luc2-Hygro)
- Reagent: single siRNA against human genes, 0.8 pmol siRNA per well
- Time to read-out: 72 h
- Detection: 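Luciferase light (ONE-Glo) measured on one replicate plate set and viability (CellTiter-Glo) on the other, scaled to a negative control siRNA, with robust z-scores and luciferase per cell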
- Scale: total luciferase, z-score and total luciferase, % of control: higher = more reporter protein produced; luciferase per cell, z-score: higher = more reporter output per viable cell; viable cells, % of control: higher = more viable cells
- Call rule: 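Active when the median/MAD z-score for overall luciferase is greater than 3; a gene was taken forward for validation with new siRNAs if at least two of its three siRNAs passed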
- Calls: active = raised luciferase; inactive = no rise
In all, the deposit lists about 59,000 reagents; shown is a random part of them. About 1,510 of them (2.6%) were called active. 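Calls use total luciferase alone and ignore viability, so some active siRNAs may act by altering cell number.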 Unmarked entries are inactive. Reagents against one gene are numbered here.

target | reagent no. | total luciferase, z-score | total luciferase, % of control | luciferase per cell, z-score | viable cells, % of control
PDLIM4 | 1 | -1.11 | 59.8 | -1.1 | 89.2
PDLIM4 | 2 | -0.492 | 72.1 | -0.938 | 103
PDLIM4 | 3 | -2.36 | 35 | -1.74 | 61.8
CCDC157 | 1 | -0.678 | 68.4 | -0.847 | 95.5
CCDC157 | 2 | -0.862 | 64.7 | -0.26 | 77.5
CCDC157 | 3 | 0.274 | 87.3 | 0.138 | 94.1
PXMP2 | 1 | -0.518 | 71.6 | -0.73 | 96.9
PXMP2 | 2 | -0.221 | 77.5 | -0.66 | 103
PXMP2 | 3 | -0.757 | 66.8 | -0.872 | 94
GOLGA7 | 1 | 1.4 | 110 | 2.78 | 59
GOLGA7 | 2 | 1.32 | 108 | 0.664 | 101
GOLGA7 | 3 | -0.374 | 74.4 | -0.855 | 104
TMEM258 | 1 | -0.935 | 63.3 | -1.13 | 95.2
TMEM258 | 2 | -0.43 | 73.3 | 0.588 | 70.2
TMEM258 | 3 | 0.0602 | 83.1 | 0.565 | 80
SERPINB2 | 1 | -0.466 | 72.6 | -0.501 | 92.6
SERPINB2 | 2 | 0.929 | 100 | 0.409 | 101
SERPINB2 | 3 | -0.836 | 65.3 | 1.03 | 55.6
ALKBH3 | 1 | -1.45 | 53.1 | -1.19 | 81.1
ALKBH3 | 2 | 0.939 | 101 | 1.6 | 73.8
ALKBH3 | 3 | -0.775 | 66.5 | 0.312 | 68.4
SSH2 | 1 | -0.56 | 70.7 | 0.829 | 63.5
SSH2 | 2 | -0.0638 | 80.6 | -0.606 | 106
SSH2 | 3 | -0.839 | 65.2 | -1.18 | 99.4
IZUMO4 | 1 | 0.869 | 99.2 | 1.09 | 83.2
IZUMO4 | 2 | -0.249 | 76.9 | 1.16 | 63.4
IZUMO4 | 3 | 0.459 | 91 | 0.818 | 82
ENPEP | 1 | 1.17 | 105 | 0.741 | 96.6
ENPEP | 2 | 0.128 | 84.4 | -0.739 | 115
ENPEP | 3 | 0.653 | 94.9 | -0.0894 | 109
TAC4 | 1 | -0.585 | 70.2 | -1.09 | 105
TAC4 | 2 | 1.53 | 112 | 0.175 | 120
TAC4 | 3 | -0.295 | 76 | -0.439 | 95.4
ARHGEF17 | 1 | 0.0933 | 83.7 | 1.13 | 69.5
ARHGEF17 | 2 | -0.34 | 75.1 | -0.292 | 90.6
ARHGEF17 | 3 | 0.799 | 97.8 | 3.11 | 48.2
RPL9P25 | 1 | -2.97 | 22.8 | -2.43 | 48.4
RPL9P25 | 2 | 1.92 | 120 | 1.95 | 80.4
RPL9P25 | 3 | -0.387 | 74.2 | -0.42 | 92.6
PRR19 | 1 | -1.03 | 61.5 | -1.19 | 93.8
PRR19 | 2 | 0.325 | 88.4 | -0.266 | 106
PRR19 | 3 | -0.0617 | 80.7 | -0.191 | 94.8
DNAAF6 | 1 | -0.319 | 75.5 | -0.0962 | 86.6
DNAAF6 | 2 | -1.89 | 44.3 | -2.23 | 89.1
DNAAF6 | 3 | -0.819 | 65.6 | -1.43 | 107
CAMKMT | 1 | 2.71 | 136 | 1.32 | 107
CAMKMT | 2 | 0.0319 | 82.5 | -0.429 | 103
CAMKMT | 3 | -0.535 | 71.2 | -1.16 | 108

Targets listed so far whose target name begins with G or g:
target | reagent no. | total luciferase, z-score | total luciferase, % of control | luciferase per cell, z-score | viable cells, % of control
GOLGA7 | 1 | 1.4 | 110 | 2.78 | 59
GOLGA7 | 2 | 1.32 | 108 | 0.664 | 101
GOLGA7 | 3 | -0.374 | 74.4 | -0.855 | 104

Next results:
target | reagent no. | total luciferase, z-score | total luciferase, % of control | luciferase per cell, z-score | viable cells, % of control
LPCAT3 | 1 | 2.4 | 130 | 1.7 | 92.7
LPCAT3 | 2 | -1.2 | 58 | -1.27 | 90.5
LPCAT3 | 3 | 0.771 | 97.2 | 1.18 | 79.6
SAR1AP3 | 1 | -0.324 | 75.4 | 0.318 | 77.5
SAR1AP3 | 2 | -1.7 | 48.1 | -0.922 | 68.6
SAR1AP3 | 3 | 0.656 | 94.9 | 0.39 | 95.7
UBTFL3 | 1 | 0.944 | 101 | 1.77 | 70.7
UBTFL3 | 2 | -0.859 | 64.8 | -1.05 | 95.4
UBTFL3 | 3 | -0.359 | 74.7 | 0.63 | 70.7
TREM1 | 1 | -0.268 | 76.6 | -0.125 | 88.4
TREM1 | 2 | 0.633 | 94.5 | 0.86 | 84.2
TREM1 | 3 | 2.26 | 127 | 1.56 | 94
DYNLT2 | 1 | -0.0108 | 81.7 | -0.608 | 107
DYNLT2 | 2 | 0.777 | 97.3 | 0.63 | 92.1
DYNLT2 | 3 | -0.201 | 77.9 | -0.769 | 107
TEX15 | 1 | -1.86 | 44.9 | 0.174 | 47.9
TEX15 | 2 | -0.518 | 71.6 | -0.567 | 92.9
TEX15 | 3 | -0.00823 | 81.7 | 0.152 | 87.7
STEAP1B | 1 | 3.44 (active) | 150 | 2.3 | 91.6
STEAP1B | 2 | 0.19 | 85.7 | -0.123 | 98.9
STEAP1B | 3 | 0.823 | 98.3 | -0.0329 | 111
RPL35P10 | 1 | -0.35 | 74.9 | -0.0817 | 85.6
RPL35P10 | 2 | 0.0517 | 82.9 | -0.864 | 116
RPL35P10 | 3 | -0.412 | 73.7 | -0.252 | 88
KIF3B | 1 | -0.643 | 69.1 | -0.534 | 88.9
KIF3B | 2 | -0.971 | 62.6 | -0.187 | 73.4
KIF3B | 3 | 1.37 | 109 | 0.616 | 104
